Data from article PMC11662670, “Selective recognition of RNA G-quadruplex in vitro and in cells by L-aptamer–D-oligonucleotide conjugate”.

Assays:
[1] = biological target: T1, DHX36 (HeLa lysate) (UniProt Q9H2U1); assay: pull-down, immunoblot; details: Pull-down: same buffer without sucrose, 4 C, protein in an extract, label: 5' biotin
T1 sequence (looked up, limits assumed): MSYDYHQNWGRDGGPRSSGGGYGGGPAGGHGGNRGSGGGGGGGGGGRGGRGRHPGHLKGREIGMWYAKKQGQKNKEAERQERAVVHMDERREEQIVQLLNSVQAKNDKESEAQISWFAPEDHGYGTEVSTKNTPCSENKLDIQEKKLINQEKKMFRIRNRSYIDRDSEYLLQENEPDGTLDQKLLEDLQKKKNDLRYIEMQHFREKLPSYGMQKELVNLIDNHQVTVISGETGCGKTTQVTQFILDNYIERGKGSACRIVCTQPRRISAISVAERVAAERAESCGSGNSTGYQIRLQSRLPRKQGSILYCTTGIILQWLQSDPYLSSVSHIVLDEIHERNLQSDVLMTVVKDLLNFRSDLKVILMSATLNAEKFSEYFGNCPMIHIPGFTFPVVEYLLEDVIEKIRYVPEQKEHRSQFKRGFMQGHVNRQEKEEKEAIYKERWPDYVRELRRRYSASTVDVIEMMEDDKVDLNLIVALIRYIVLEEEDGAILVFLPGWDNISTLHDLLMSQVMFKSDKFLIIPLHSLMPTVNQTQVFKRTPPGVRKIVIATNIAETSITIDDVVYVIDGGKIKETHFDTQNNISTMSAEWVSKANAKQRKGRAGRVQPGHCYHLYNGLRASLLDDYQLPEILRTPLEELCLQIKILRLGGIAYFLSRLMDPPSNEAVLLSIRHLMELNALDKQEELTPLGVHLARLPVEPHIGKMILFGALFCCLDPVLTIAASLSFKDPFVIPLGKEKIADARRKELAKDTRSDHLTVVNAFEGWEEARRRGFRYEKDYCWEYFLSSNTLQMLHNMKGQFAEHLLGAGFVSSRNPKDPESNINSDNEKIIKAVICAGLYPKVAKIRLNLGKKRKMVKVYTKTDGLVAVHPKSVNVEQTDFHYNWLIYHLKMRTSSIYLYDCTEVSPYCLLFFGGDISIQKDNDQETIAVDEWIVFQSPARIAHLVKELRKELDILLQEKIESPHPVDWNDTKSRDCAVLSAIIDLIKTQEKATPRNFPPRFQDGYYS

[2] = biological target: T2, DHX36 (UniProt Q9H2U1); assay: competition EMSA; details: 48 nM DHX36, 5 nM RNA, not dissociated by conjugate, L-aptamer or ASO; EMSA: 150 mM KCl, 1 mM MgCl2, 25 mM Tris-HCl pH 7.5, 8% sucrose, 30 min at 37 C; gel at 4 C; commercial protein; label: 5' FAM
T2 sequence (looked up, limits assumed): T1 sequence (looked up, limits assumed)

Q: Does “GGGGCGGGUGGGGAGGGGUGCUCUGCUGGUCUU [Biotin-wt APP rG4 region]” bind ([1]; reduced by 100 nM L-Apt.4-1c-ASO15nt(APP))?
A: Result: binds

Q: Does “GGGAGGGCGGGGAGGGCGCGCGGCGAUCGGACACGA [FAM_TRF2 rG4 region]” bind [2]?
A: Result: binds

Q: Does “GAAGCGAGUGAAGAGAAGUAAUAUACUAAUAUU [Biotin-mut APP rG4 region]” bind [1]?
A: Result: no binding

Construct, isoform or probe ends are uncertain for at least one entry. For part of these data: Results from cells or extracts need not show a direct contact. For part of these data: A negative result means that nothing was seen under these conditions. Protein sequences can lack the tags named with them. For part of these data: At least one verdict rests on a figure or table, not on a statement of the authors.
